No constants are given. Whether binding was seen depends on the method and setting. In cells and extracts the contact can be indirect. These calls come from enrichment with a bait or labelling near it, and not all partners need be listed.

Amino acid sequences for entries named in this document (tags omitted).
UniProt Q27991: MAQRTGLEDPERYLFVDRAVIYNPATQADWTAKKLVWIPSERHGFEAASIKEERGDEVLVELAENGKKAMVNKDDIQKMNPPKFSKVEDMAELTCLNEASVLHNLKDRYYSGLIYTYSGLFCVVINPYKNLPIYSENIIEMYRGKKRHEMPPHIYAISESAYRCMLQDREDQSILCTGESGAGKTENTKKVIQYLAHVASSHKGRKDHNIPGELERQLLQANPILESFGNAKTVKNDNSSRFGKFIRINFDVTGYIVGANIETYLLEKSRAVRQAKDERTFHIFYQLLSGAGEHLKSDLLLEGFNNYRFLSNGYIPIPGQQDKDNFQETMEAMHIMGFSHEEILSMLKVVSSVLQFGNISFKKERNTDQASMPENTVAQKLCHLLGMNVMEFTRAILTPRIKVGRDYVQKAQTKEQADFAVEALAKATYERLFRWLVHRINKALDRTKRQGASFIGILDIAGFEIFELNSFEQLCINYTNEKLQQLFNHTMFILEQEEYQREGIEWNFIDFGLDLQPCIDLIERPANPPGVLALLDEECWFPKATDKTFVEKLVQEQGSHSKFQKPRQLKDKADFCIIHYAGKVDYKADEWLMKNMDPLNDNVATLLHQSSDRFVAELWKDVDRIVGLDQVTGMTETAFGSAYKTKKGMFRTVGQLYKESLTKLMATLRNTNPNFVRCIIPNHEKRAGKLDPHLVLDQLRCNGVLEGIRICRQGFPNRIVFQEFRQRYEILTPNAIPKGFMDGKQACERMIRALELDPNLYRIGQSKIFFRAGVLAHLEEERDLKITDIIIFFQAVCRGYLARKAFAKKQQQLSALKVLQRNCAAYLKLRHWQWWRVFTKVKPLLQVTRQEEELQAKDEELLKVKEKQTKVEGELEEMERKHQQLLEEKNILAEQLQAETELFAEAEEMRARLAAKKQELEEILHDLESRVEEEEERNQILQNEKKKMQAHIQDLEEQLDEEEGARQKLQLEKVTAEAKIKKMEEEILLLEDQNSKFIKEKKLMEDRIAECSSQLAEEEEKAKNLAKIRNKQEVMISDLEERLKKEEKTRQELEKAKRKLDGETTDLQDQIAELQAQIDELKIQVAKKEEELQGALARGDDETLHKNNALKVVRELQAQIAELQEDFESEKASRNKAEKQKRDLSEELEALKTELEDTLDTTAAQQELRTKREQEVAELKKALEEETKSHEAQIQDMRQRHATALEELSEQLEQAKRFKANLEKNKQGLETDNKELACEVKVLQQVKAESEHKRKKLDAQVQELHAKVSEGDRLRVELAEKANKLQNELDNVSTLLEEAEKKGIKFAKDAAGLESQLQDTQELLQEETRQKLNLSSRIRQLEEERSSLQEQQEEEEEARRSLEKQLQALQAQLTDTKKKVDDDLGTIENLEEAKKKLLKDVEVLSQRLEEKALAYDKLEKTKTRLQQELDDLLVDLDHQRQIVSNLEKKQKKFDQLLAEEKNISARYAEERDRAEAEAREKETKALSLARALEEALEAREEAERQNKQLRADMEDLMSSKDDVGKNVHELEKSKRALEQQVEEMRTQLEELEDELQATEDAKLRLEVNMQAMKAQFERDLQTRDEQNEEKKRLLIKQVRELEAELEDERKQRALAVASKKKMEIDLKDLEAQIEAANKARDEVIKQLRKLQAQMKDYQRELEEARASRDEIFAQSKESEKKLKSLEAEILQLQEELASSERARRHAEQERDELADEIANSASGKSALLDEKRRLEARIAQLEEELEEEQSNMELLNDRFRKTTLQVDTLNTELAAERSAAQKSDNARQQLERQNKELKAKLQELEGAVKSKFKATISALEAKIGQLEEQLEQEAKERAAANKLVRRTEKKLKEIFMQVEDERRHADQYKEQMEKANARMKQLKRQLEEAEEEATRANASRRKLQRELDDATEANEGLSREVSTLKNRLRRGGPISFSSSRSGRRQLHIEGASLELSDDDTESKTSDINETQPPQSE
UniProt P85100: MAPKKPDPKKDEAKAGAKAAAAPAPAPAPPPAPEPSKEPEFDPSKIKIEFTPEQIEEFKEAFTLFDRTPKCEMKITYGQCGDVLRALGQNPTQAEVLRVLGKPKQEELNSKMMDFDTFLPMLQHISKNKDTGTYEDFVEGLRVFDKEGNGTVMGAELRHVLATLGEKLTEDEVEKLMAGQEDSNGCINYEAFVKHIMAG

The record followed here is PMC12915160.

The test concerns the target MYH10 (non‐muscle myosin IIB) (bovine (endogenous in bovine MuSCs)) (UniProt Q27991). Nature of the test: affinity purification with mass spectrometry; Co-IP targeting MYH10 followed by mass spectrometry; 180 interacting proteins identified.

With “MYL3 (myosin light chain family member) (from UniProt P85100 1-199)”, the binding entry is listed as “binds”.
